The other results are listed elsewhere or left out. For some of these results: Construct or isoform of the protein are uncertain.
What was measured:
Assay in all cases: protein microarray (ProtoArray v5.0), streptavidin-Alexa Fluor 647
Conditions in all cases: 3'-biotin; 20 mM Tris (pH 7.5), 5 mM MgCl2, 100 mM KCl, 0.1% Tween-20, A/T-rich and random oligonucleotide blockers; temperature not stated; high values mean tight binding
TTC8 (human) = test system: TTC8 (human)
TTLL7 = molecular target: T1, TTLL7 (UniProt Q6ZT98)
T1 sequence: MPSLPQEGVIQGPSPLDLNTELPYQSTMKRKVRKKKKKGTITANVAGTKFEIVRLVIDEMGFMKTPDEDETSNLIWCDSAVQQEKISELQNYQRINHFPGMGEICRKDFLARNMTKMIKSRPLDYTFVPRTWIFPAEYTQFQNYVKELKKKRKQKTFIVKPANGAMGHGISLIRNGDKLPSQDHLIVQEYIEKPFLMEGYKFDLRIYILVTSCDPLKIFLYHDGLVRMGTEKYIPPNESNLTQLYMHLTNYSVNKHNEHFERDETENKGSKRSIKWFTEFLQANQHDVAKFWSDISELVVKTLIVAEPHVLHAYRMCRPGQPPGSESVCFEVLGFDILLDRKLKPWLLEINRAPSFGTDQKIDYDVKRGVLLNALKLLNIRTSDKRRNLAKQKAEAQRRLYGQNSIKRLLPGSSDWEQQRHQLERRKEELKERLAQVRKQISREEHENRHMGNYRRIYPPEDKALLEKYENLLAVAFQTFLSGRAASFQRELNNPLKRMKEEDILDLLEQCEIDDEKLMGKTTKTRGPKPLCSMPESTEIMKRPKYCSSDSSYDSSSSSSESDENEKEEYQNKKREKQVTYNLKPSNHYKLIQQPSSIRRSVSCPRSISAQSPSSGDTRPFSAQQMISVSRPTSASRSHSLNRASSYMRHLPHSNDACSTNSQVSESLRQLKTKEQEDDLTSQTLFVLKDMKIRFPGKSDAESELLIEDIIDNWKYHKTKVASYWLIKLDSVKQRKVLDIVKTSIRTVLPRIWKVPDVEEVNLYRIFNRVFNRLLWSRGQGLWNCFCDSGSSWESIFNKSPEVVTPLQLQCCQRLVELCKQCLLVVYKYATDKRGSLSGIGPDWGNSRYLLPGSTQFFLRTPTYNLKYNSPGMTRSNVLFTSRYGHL

TTR (human) = test system: TTR (human)
TUBA3E (human) = test system: TUBA3E (human)
TXNDC9 (human) = test system: TXNDC9 (human)
TXNL4B (human) = test system: TXNL4B (human)
Tachykinin-3 (human) = test system: Tachykinin-3 (human)
Tesmin (human) = test system: Tesmin (human)
[1] = test system: Tetratricopeptide repeat protein 1 (human)
[2] = test system: Thrombospondin type-1 domain-containing protein 4 (human)

## GGGGACAGGGGTATGGGGAGGGG [G4-3 biotinylated (CtG)]
TTC8 (human)
  binding signal: -0.333 z-score
TTLL7
  binding signal: 5.28 z-score
TTR (human)
  binding signal: -0.309 z-score
TUBA3E (human)
  binding signal: -0.33 z-score
TXNDC9 (human)
  binding signal: -0.337 z-score
TXNL4B (human)
  binding signal: -0.296 z-score
Tachykinin-3 (human)
  binding signal: -0.322 z-score
Tesmin (human)
  binding signal: -0.333 z-score
[1]
  binding signal: -0.331 z-score
[2]
  binding signal: -0.317 z-score
